# Source: PubChem BioAssay AID248 (DTP/NCI, 2004)
# The list does not hold the whole screen: it gathers tests that were run many times, whatever their T/C, doses with no T/C, and many T/C values between a quarter and a half above the control. Further doses and runs are listed elsewhere. T/C: endpoint of the treated group in % of that of the vehicle group. Some entries give survivors of the animals treated and no T/C: the source files T/C as zero there, which appears to mark a toxic dose or a test without result, not a measured value. Some doses without a T/C left all or most animals alive at the check, yet need not have been tolerated: survival well below the control is almost never listed, so the zero probably covers shortened survival too. Survivors were counted at the toxicity check, usually on the fifth day, unless a day is given; later deaths do not show. Schedules are NCI's codes, taken here to give the interval after Q, in days (D) or hours (H), and the number of doses after X. Some schedules carry Z or #; the key to these is not given. Some doses were run more than once; the values are given in rising order. For survival time, the PubChem record calls one and a half times the control and up active, and a quarter to a half above the control has no call in these data; cut-offs in other NCI protocols can differ. Some T/C values are followed by the survivors on the day toxicity was checked, most often the fifth; without a count, all were alive then.
# System: L1210 leukemia ip in BDF1 mice, survival T/C
# Assay: NCI In Vivo Anticancer Drug Screen. Data for tumor model L1210 Leukemia (intraperitoneal) in B6D2F1 (BDF1) mice
# Settings: T/C endpoint: mean survival time, higher T/C = longer survival
# [1] = dose: 100.0 mg/kg/injection, schedule: Q01DX001 (ip), vehicle: saline with Tween-80
# [2] = dose: 20.0 mg/kg/injection, schedule: Q01DX Z (ip), vehicle: carboxymethylcellulose (CMC)
# [3] = dose: 400.0 mg/kg/injection, schedule: Q01DX001 (ip), vehicle: carboxymethylcellulose (CMC)
# [4] = dose: 200.0 mg/kg/injection, schedule: Q01DX009 (ip), vehicle: Klucel (hydroxypropylcellulose) (HPC)
structure (smiles),measurement,setting,value
Cc1cc(N(CCCl)CCCl)ccc1/C=N\Nc1nncn1N,T/C,"dose: 50.0 mg/kg/injection, schedule: Q01DX009 (ip), vehicle: carboxymethylcellulose (CMC)",127 and 134 % of control
same,T/C,"dose: 200.0 mg/kg/injection, schedule: Q01DX009 (ip), vehicle: carboxymethylcellulose (CMC)",144 % of control
same,survivor count,"dose: 400.0 mg/kg/injection, schedule: Q01DX009 (ip), vehicle: carboxymethylcellulose (CMC)",5 of 6
CCOC(=O)CCC(NC(=O)c1cnc(N)s1)C(=O)OCC (centres undefined),T/C,[1],125 % of control
COc1cc2c(c3c1c(=O)c1ccccc1n3C)C=CC(C)(C)O2,survivor count,"dose: 100.0 mg/kg/injection, schedule: Q01DX001 (ip), vehicle: acetone",1 of 6
same,survivor count,"dose: 200.0 mg/kg/injection, schedule: Q01DX001 (ip), vehicle: acetone",0 of 6 and 3 of 6
same,survivor count,"dose: 200.0 mg/kg/injection, schedule: Q01DX009 (ip), vehicle: acetone",5 of 6
same,survivor count,"dose: 400.0 mg/kg/injection, schedule: Q01DX001 (ip), vehicle: acetone",0 of 6
same,survivor count,"dose: 400.0 mg/kg/injection, schedule: Q01DX009 (ip), vehicle: acetone",0 of 6
same,survivor count,"dose: 800.0 mg/kg/injection, schedule: Q01DX001 (ip), vehicle: acetone",0 of 6
CCC(CC)OC(=O)Nc1cccc(OC(=O)NC)c1,survivor count,"dose: 400.0 mg/kg/injection, schedule: Q04DX003 (ip), vehicle: saline with Tween-80",3 of 6
CCCCC1C(=O)OC(C(C)C(O)CCCN=C(N)N)C(C)C=C(C)CCCCC(O)CC(O)CC(O)CC(O)CC(O)C(OC2OC(CO)C(O)C2O)C=C(C)C(O)CCCC(O)CCCC(O)CCC(C)C1O (centres undefined),survivor count,"dose: 1.0 mg/kg/injection, schedule: Q01DX Z (ip), vehicle: carboxymethylcellulose (CMC)",6 of 6
same,survivor count,"dose: 1.6 mg/kg/injection, schedule: Q01DX Z (ip), vehicle: carboxymethylcellulose (CMC)",6 of 6
same,survivor count,"dose: 2.5 mg/kg/injection, schedule: Q01DX Z (ip), vehicle: carboxymethylcellulose (CMC)",2 of 6 and 6 of 6
same,survivor count,"dose: 5.0 mg/kg/injection, schedule: Q01DX Z (ip), vehicle: carboxymethylcellulose (CMC)",0 of 6
same,survivor count,"dose: 10.0 mg/kg/injection, schedule: Q01DX Z (ip), vehicle: carboxymethylcellulose (CMC)",0 of 6
same,survivor count,[2],0 of 6
CC(C)(C)CC(CC(C)(C)C)C(=O)O,survivor count,"dose: 900.0 mg/kg/injection, schedule: Q01DX Z (ip), vehicle: other",0 of 6
CCOC(=O)CSc1nc2nc(Cl)c(Cl)nc2[nH]1,survivor count,"dose: 400.0 mg/kg/injection, schedule: Q01DX009 (ip), vehicle: saline with Tween-80",3 of 6
CCOC(=O)C(C#N)S(C)(=O)=O (centres undefined),survivor count,"dose: 400.0 mg/kg/injection, schedule: Q01DX001 (ip), vehicle: saline",0 of 3
CCCC(=O)OCC1OC(n2cc(C)c(=O)[nH]c2=O)CC1OC(=O)CCC (centres undefined),survivor count,[3],2 of 4
CCOC(=O)NN=C1CCCC1,survivor count,"dose: 200.0 mg/kg/injection, schedule: Q01DX009 (ip), vehicle: saline with Tween-80",0 of 3
CCOc1ccccc1N1C(=O)CSC1=S,T/C,"dose: 100.0 mg/kg/injection, schedule: Q04DX002 (ip), vehicle: other",127 % of control
O=C(Nc1ccc(C2=NCCN2)cc1)Nc1cccc(NC(=O)Nc2cccc(C3=NCCN3)c2)c1,T/C,"dose: 4.0 mg/kg/injection, schedule: Q01DX Z (ip), vehicle: carboxymethylcellulose (CMC)",145 and 147 % of control
same,survivor count,"dose: 31.0 mg/kg/injection, schedule: Q01DX Z (ip), vehicle: water",6 of 6
same,survivor count,"dose: 62.0 mg/kg/injection, schedule: Q01DX Z (ip), vehicle: saline",6 of 6
same,survivor count,"dose: 125.0 mg/kg/injection, schedule: Q01DX Z (ip), vehicle: saline",5 of 6
same,survivor count,"dose: 250.0 mg/kg/injection, schedule: Q01DX Z (ip), vehicle: saline",1 of 6
same,survivor count,"dose: 500.0 mg/kg/injection, schedule: Q01DX Z (ip), vehicle: saline",0 of 6
CC(C)N1C(=O)c2cccc3c(Br)ccc(c23)C1=O,survivor count,"dose: 400.0 mg/kg/injection, schedule: Q04DX003 (ip), vehicle: Klucel (hydroxypropylcellulose) (HPC)",1 of 6
O=[N+]([O-])/C(N=Nc1ccc(Br)cc1)=N\Nc1ccc(Br)cc1,survivor count,"dose: 300.0 mg/kg/injection, schedule: Q01DX001 (ip), vehicle: acetone",5 of 6
CC(=O)c1cccc(NC(=O)Nc2nccs2)c1,survivor count,[4],3 of 3
same,survivor count,"dose: 400.0 mg/kg/injection, schedule: Q04DX002 (ip), vehicle: Klucel (hydroxypropylcellulose) (HPC)",3 of 3
CCOc1ccc(Nc2ncnc3nc[nH]c23)cc1CN(CCCl)CCCl,T/C,"dose: 2.2 mg/kg/injection, schedule: Q04DX003 (ip), vehicle: saline",128 % of control
same,T/C,"dose: 2.8 mg/kg/injection, schedule: Q01DX Z (ip), vehicle: carboxymethylcellulose (CMC)",126 % of control
same,T/C,"dose: 3.13 mg/kg/injection, schedule: Q04DX003 (ip), vehicle: saline",128 % of control
same,T/C,"dose: 6.25 mg/kg/injection, schedule: Q04DX003 (ip), vehicle: saline",125 % of control [5 of 6 alive]
same,T/C,"dose: 6.3 mg/kg/injection, schedule: Q01DX Z (ip), vehicle: carboxymethylcellulose (CMC)",130 % of control [6 of 7 alive]
same,survivor count,"dose: 9.5 mg/kg/injection, schedule: Q01DX Z (ip), vehicle: carboxymethylcellulose (CMC)",3 of 7
same,survivor count,[2],2 of 6
same,survivor count,"dose: 50.0 mg/kg/injection, schedule: Q01DX001 (ip), vehicle: carboxymethylcellulose (CMC)",2 of 4
same,survivor count,"dose: 80.0 mg/kg/injection, schedule: Q01DX001 (ip), vehicle: carboxymethylcellulose (CMC)",1 of 4
same,survivor count,"dose: 100.0 mg/kg/injection, schedule: Q01DX001 (ip), vehicle: carboxymethylcellulose (CMC)",1 of 4
same,survivor count,"dose: 100.0 mg/kg/injection, schedule: Q04DX003 (ip), vehicle: saline",0 of 6
same,survivor count,"dose: 200.0 mg/kg/injection, schedule: Q01DX001 (ip), vehicle: carboxymethylcellulose (CMC)",0 of 4
same,survivor count,"dose: 200.0 mg/kg/injection, schedule: Q04DX003 (ip), vehicle: saline",0 of 6
same,survivor count,[3],0 of 4
same,survivor count,"dose: 400.0 mg/kg/injection, schedule: Q04DX003 (ip), vehicle: saline",1 of 6
NC(=S)N/N=C/c1ccc(C(F)(F)F)cn1,survivor count,"dose: 44.0 mg/kg/injection, schedule: Q01DX001 (ip), vehicle: saline with Tween-80",6 of 10
same,survivor count,"dose: 66.0 mg/kg/injection, schedule: Q01DX001 (ip), vehicle: saline with Tween-80",5 of 10
same,survivor count,[1],0 of 10
same,survivor count,"dose: 150.0 mg/kg/injection, schedule: Q01DX001 (ip), vehicle: saline with Tween-80",0 of 10
same,survivor count,"dose: 225.0 mg/kg/injection, schedule: Q01DX001 (ip), vehicle: saline with Tween-80",0 of 10
O=C(Nc1ccc(C2=NCCN2)cc1)c1cccc(NC(=S)Nc2ccc(C3=NCCN3)cc2)c1,T/C,"dose: 10.0 mg/kg/injection, schedule: Q01DX Z (ip), vehicle: saline",130 and 131 % of control
same,survivor count,"dose: 40.0 mg/kg/injection, schedule: Q01DX Z (ip), vehicle: saline",1 of 6 and 2 of 6
CCc1ccccc1NC(=O)SCCSC(=O)Nc1ccccc1CC,survivor count,[4],6 of 6
CN(C)CCOC(=O)c1cc(CCBr)cc(CCBr)c1,survivor count,"dose: 20.0 mg/kg/injection, schedule: Q01DX009 (ip), vehicle: Klucel (hydroxypropylcellulose) (HPC)",1 of 6
same,survivor count,"dose: 40.0 mg/kg/injection, schedule: Q01DX009 (ip), vehicle: Klucel (hydroxypropylcellulose) (HPC)",0 of 6
same,survivor count,"dose: 87.5 mg/kg/injection, schedule: Q01DX009 (ip), vehicle: saline",0 of 6
same,survivor count,"dose: 175.0 mg/kg/injection, schedule: Q01DX009 (ip), vehicle: saline",0 of 6
same,survivor count,"dose: 350.0 mg/kg/injection, schedule: Q01DX009 (ip), vehicle: saline",0 of 6
CC1(C)c2ccccc2N(CCCN2CCCCC2)c2ccccc21,survivor count,"dose: 400.0 mg/kg/injection, schedule: Q01DX001 (ip), vehicle: water",0 of 4
O=c1cc(Oc2ccc([N+](=O)[O-])cc2)[nH]c(=O)[nH]1,survivor count,"dose: 400.0 mg/kg/injection, schedule: Q01DX001 (ip), vehicle: Klucel (hydroxypropylcellulose) (HPC)",3 of 6
COc1cccc(C(=O)NC[n+]2ccccc2)c1,survivor count,"dose: 100.0 mg/kg/injection, schedule: Q01DX009 (ip), vehicle: saline",4 of 6
